{"source": "the supplement of paper PMC8728848", "binders": {"B1": {"name": "CALR truncated at D342 (Homo sapiens) (protein)", "chain": "EPAVYFKEQFLDGDGWTSRWIESKHKSDFGKFVLSSGKFYGDEEKDKGLQTSQDARFYALSASFEPFSNKGQTLVVQFTVKHEQNIDCGGGYVKLFPNSLDQTDMHGDSEYNIMFGPDICGPGTKKVHVIFNYKGKNVLINKDIRCKDDEFTHLYTLIVRPDNTYEVKIDNSQVESGSLEDDWDFLPPKKIKDPDASKPEDWDERAKIDDPTDSKPEDWDKPEHIPDPDAKKPEDWDEEMDGEWEPPVIQNPEYKGEWKPRQIDNPDYKGTWIHPEIDNPEYSPDPSIYAYDNFGVLGLDLWQVKSGTIFDNFLITNDEAYAEEFGNETWGVTKAAEKQMKD"}}, "experiment_in_all_cases": "glycan array binding signal (z-score within array); higher = stronger binding", "conditions_in_all_cases": "glycan notation: IUPAC condensed, linker removed", "key": {"[1]": {"target": "Kdn(a2-3)Gal(b1-4)GlcNAc", "method_in_brief": "(§1)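 Glycan array data were curated from 3228 arrays in the Consortium for Functional Glycomics database and kept only where the protein sequence was available. Glycan names were converted to IUPAC-condensed notation, and columns mapping to the same glycan were averaged. The binding signal is a within-array Z-score, averaged across arrays of the same protein sequence at different concentrations or buffers and across linkers. Negative Z-scores can be read as non-binding.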"}, "[2]": {"target": "Kdn(a2-3)Gal(b1-4)[Fuc(a1-3)]GlcNAc", "method_in_brief": "as §1"}, "[3]": {"target": "Kdn(a2-6)Gal(b1-4)GlcNAc", "method_in_brief": "as §1"}, "[4]": {"target": "Man(a1-2)Man(a1-2)Man(a1-3)Man", "method_in_brief": "as §1"}, "[5]": {"target": "Man(a1-2)Man(a1-2)Man(a1-6)[Man(a1-3)]Man", "method_in_brief": "as §1"}, "[6]": {"target": "Man(a1-2)Man(a1-3)Man", "method_in_brief": "as §1"}, "[7]": {"target": "Man(a1-2)Man(a1-3)[Man(a1-2)Man(a1-6)]Man", "method_in_brief": "as §1"}, "[8]": {"target": "Man(a1-2)Man(a1-3)[Man(a1-2)Man(a1-6)]Man(a1-6)[Man(a1-2)Man(a1-2)Man(a1-3)]Man", "method_in_brief": "as §1"}, "[9]": {"target": "Man(a1-2)Man(a1-3)[Man(a1-2)Man(a1-6)]Man(a1-6)[Man(a1-2)Man(a1-2)Man(a1-3)]Man(b1-4)GlcNAc(b1-4)GlcNAc", "method_in_brief": "as §1"}, "[10]": {"target": "Man(a1-2)Man(a1-3)[Man(a1-6)]Man(a1-6)[Man(a1-2)Man(a1-3)]Man(b1-4)GlcNAc(b1-4)GlcNAc", "method_in_brief": "as §1"}, "[11]": {"target": "Man(a1-2)Man(a1-6)[Man(a1-3)]Man(a1-6)[Man(a1-2)Man(a1-2)Man(a1-3)]Man", "method_in_brief": "as §1"}, "[12]": {"target": "Man(a1-2)Man(a1-6)[Man(a1-3)]Man(a1-6)[Man(a1-2)Man(a1-2)Man(a1-3)]Man(b1-4)GlcNAc(b1-4)GlcNAc", "method_in_brief": "as §1"}, "[13]": {"target": "Man(a1-3)[Man(a1-6)]Man", "method_in_brief": "as §1"}, "[14]": {"target": "Man(a1-3)[Man(a1-6)]Man(a1-6)[Man(a1-2)Man(a1-3)]Man(b1-4)GlcNAc(b1-4)GlcNAc", "method_in_brief": "as §1"}, "[15]": {"target": "Man(a1-3)[Man(a1-6)]Man(a1-6)[Man(a1-3)]Man", "method_in_brief": "as §1"}, "[16]": {"target": "Man(a1-3)[Man(a1-6)]Man(a1-6)[Man(a1-3)]Man(b1-4)GlcNAc(b1-4)GlcNAc", "method_in_brief": "as §1"}, "[17]": {"target": "Man(a1-3)[Man(a1-6)]Man(b1-4)GlcNAc(b1-4)GlcNAc", "method_in_brief": "as §1"}, "[18]": {"target": "Man(a1-3)[Man(a1-6)]Man(b1-4)GlcNAc(b1-4)[Fuc(a1-6)]GlcNAc", "method_in_brief": "as §1"}, "[19]": {"target": "Man(a1-6)Man", "method_in_brief": "as §1"}, "[20]": {"target": "Man(b1-4)GlcNAc", "method_in_brief": "as §1"}, "[21]": {"target": "Neu5Ac(a2-3)Gal", "method_in_brief": "as §1"}, "[22]": {"target": "Neu5Ac(a2-3)Gal(b1-3)GalNAc", "method_in_brief": "as §1"}, "[23]": {"target": "Neu5Ac(a2-3)Gal(b1-3)GalNAc(b1-3)Gal(a1-4)Gal(b1-4)Glc", "method_in_brief": "as §1"}, "[24]": {"target": "Neu5Ac(a2-3)Gal(b1-3)GalNAc(b1-4)[Neu5Ac(a2-3)]Gal(b1-4)Glc", "method_in_brief": "as §1"}, "[25]": {"target": "Neu5Ac(a2-3)Gal(b1-3)GalNAc(b1-4)[Neu5Ac(a2-8)Neu5Ac(a2-3)]Gal(b1-4)Glc", "method_in_brief": "as §1"}, "[26]": {"target": "Neu5Ac(a2-3)Gal(b1-3)GalNAc6S", "method_in_brief": "as §1"}, "[27]": {"target": "Neu5Ac(a2-3)Gal(b1-3)GlcNAc", "method_in_brief": "as §1"}, "[28]": {"target": "Neu5Ac(a2-3)Gal(b1-3)GlcNAc(b1-2)Man(a1-3)[GlcNAc(b1-4)][Neu5Ac(a2-3)Gal(b1-3)GlcNAc(b1-2)Man(a1-6)]Man(b1-4)GlcNAc(b1-4)GlcNAc", "method_in_brief": "as §1"}, "[29]": {"target": "Neu5Ac(a2-3)Gal(b1-3)GlcNAc(b1-3)Gal(b1-3)GlcNAc", "method_in_brief": "as §1"}, "[30]": {"target": "Neu5Ac(a2-3)Gal(b1-3)GlcNAc(b1-3)Gal(b1-4)GlcNAc", "method_in_brief": "as §1"}, "[31]": {"target": "Neu5Ac(a2-3)Gal(b1-3)GlcNAc(b1-3)GalNAc", "method_in_brief": "as §1"}, "[32]": {"target": "Neu5Ac(a2-3)Gal(b1-3)GlcNAc(b1-6)GalNAc", "method_in_brief": "as §1"}, "[33]": {"target": "Neu5Ac(a2-3)Gal(b1-3)GlcNAc6S", "method_in_brief": "as §1"}, "[34]": {"target": "Neu5Ac(a2-3)Gal(b1-3)[Fuc(a1-4)]GlcNAc", "method_in_brief": "as §1"}, "[35]": {"target": "Neu5Ac(a2-3)Gal(b1-3)[Fuc(a1-4)]GlcNAc(b1-3)Gal(b1-3)[Fuc(a1-4)]GlcNAc", "method_in_brief": "as §1"}, "[36]": {"target": "Neu5Ac(a2-3)Gal(b1-3)[Fuc(a1-4)]GlcNAc(b1-3)Gal(b1-4)[Fuc(a1-3)]GlcNAc", "method_in_brief": "as §1"}, "[37]": {"target": "Neu5Ac(a2-3)Gal(b1-3)[Neu5Ac(a2-3)Gal(b1-4)]GlcNAc", "method_in_brief": "as §1"}, "[38]": {"target": "Neu5Ac(a2-3)Gal(b1-3)[Neu5Ac(a2-6)]GalNAc", "method_in_brief": "as §1"}}, "note": "Some of the results follow."}
{"binder": "B1", "values": [{"measurement": "glycan array binding signal (z-score)", "setting": "[1]", "result": -0.087}, {"measurement": "glycan array binding signal (z-score)", "setting": "[2]", "result": -0.717}, {"measurement": "glycan array binding signal (z-score)", "setting": "[3]", "result": -1.32}, {"measurement": "glycan array binding signal (z-score)", "setting": "[4]", "result": -0.176}, {"measurement": "glycan array binding signal (z-score)", "setting": "[5]", "result": -1}, {"measurement": "glycan array binding signal (z-score)", "setting": "[6]", "result": -0.677}, {"measurement": "glycan array binding signal (z-score)", "setting": "[7]", "result": -0.28}, {"measurement": "glycan array binding signal (z-score)", "setting": "[8]", "result": -0.563}, {"measurement": "glycan array binding signal (z-score)", "setting": "[9]", "result": -0.13}, {"measurement": "glycan array binding signal (z-score)", "setting": "[10]", "result": -0.687}, {"measurement": "glycan array binding signal (z-score)", "setting": "[11]", "result": 3.6}, {"measurement": "glycan array binding signal (z-score)", "setting": "[12]", "result": -0.308}, {"measurement": "glycan array binding signal (z-score)", "setting": "[13]", "result": 0.893}, {"measurement": "glycan array binding signal (z-score)", "setting": "[14]", "result": -0.47}, {"measurement": "glycan array binding signal (z-score)", "setting": "[15]", "result": -0.102}, {"measurement": "glycan array binding signal (z-score)", "setting": "[16]", "result": -0.237}, {"measurement": "glycan array binding signal (z-score)", "setting": "[17]", "result": 0.531}, {"measurement": "glycan array binding signal (z-score)", "setting": "[18]", "result": 0.905}, {"measurement": "glycan array binding signal (z-score)", "setting": "[19]", "result": 0.051}, {"measurement": "glycan array binding signal (z-score)", "setting": "[20]", "result": -0.676}, {"measurement": "glycan array binding signal (z-score)", "setting": "[21]", "result": -1.01}, {"measurement": "glycan array binding signal (z-score)", "setting": "[22]", "result": 0.44}, {"measurement": "glycan array binding signal (z-score)", "setting": "[23]", "result": 0.518}, {"measurement": "glycan array binding signal (z-score)", "setting": "[24]", "result": -1.12}, {"measurement": "glycan array binding signal (z-score)", "setting": "[25]", "result": 0.182}, {"measurement": "glycan array binding signal (z-score)", "setting": "[26]", "result": 0.488}, {"measurement": "glycan array binding signal (z-score)", "setting": "[27]", "result": -0.162}, {"measurement": "glycan array binding signal (z-score)", "setting": "[28]", "result": -0.42}, {"measurement": "glycan array binding signal (z-score)", "setting": "[29]", "result": 0.177}, {"measurement": "glycan array binding signal (z-score)", "setting": "[30]", "result": 0.007}, {"measurement": "glycan array binding signal (z-score)", "setting": "[31]", "result": 0.067}, {"measurement": "glycan array binding signal (z-score)", "setting": "[32]", "result": 0.449}, {"measurement": "glycan array binding signal (z-score)", "setting": "[33]", "result": 0.808}, {"measurement": "glycan array binding signal (z-score)", "setting": "[34]", "result": 0.822}, {"measurement": "glycan array binding signal (z-score)", "setting": "[35]", "result": 1.42}, {"measurement": "glycan array binding signal (z-score)", "setting": "[36]", "result": 0.332}, {"measurement": "glycan array binding signal (z-score)", "setting": "[37]", "result": -0.092}, {"measurement": "glycan array binding signal (z-score)", "setting": "[38]", "result": -0.78}]}
